The values that follow come from PMC7819943, “Rice protein-binding microarrays: a tool to detect cis-acting elements near promoter regions in rice”.

Chains of the proteins cited; added tags and fusions are not shown.
UniProt Q0JBA9, entry or part of it: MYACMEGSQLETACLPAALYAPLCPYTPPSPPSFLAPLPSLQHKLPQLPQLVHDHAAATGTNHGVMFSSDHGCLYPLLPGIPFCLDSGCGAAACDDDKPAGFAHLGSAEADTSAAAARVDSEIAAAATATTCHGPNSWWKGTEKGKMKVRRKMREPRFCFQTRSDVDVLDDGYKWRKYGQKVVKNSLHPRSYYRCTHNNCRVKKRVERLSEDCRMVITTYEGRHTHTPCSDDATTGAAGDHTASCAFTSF

Some of the results follow.

The target of this experiment is OsWRKY34 (Oryza sativa, UniProt Q0JBA9 1-250). The experiment can be described thus: protein-binding microarray (RPBM); PBS, 2% BSA, 51.3 ng/ul salmon testes DNA, 50 uM zinc acetate, 200 nM TF, 25 C, 1 h; high values mean tight binding. As to conditions: protein: recombinant; tags: N-terminal polyhistidine and DsRed monomer fusion (pET32a); label: CyDye5-dUTP incorporated in the synthesized complementary strand; 3' TTTTT single-stranded linker to array surface; dsDNA, one strand shown. In short, it runs like this:
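Polyhistidine-tagged DsRed fusions of transcription factors, joined at the N-terminus, were expressed in E. coli BL21-CodonPlus and isolated on Ni–NTA. They were incubated at 200 nM for 1 h at 25 °C on a custom Agilent array, double-stranded and BSA-blocked, in PBS with 2% BSA, salmon testes DNA and 50 µM zinc acetate. The binding signal is per-feature fluorescence intensity (arbitrary units) read on an Axon 4000B scanner after washing.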
Regarding “GTGCATCCGTCTTTCTTGCTGCTAGTGTCTTCTTCAGCGACGGAGTCACCTAGTGCAG”, the binding signal was 12200 fluorescence intensity (a.u.).

On to “GTTGCAGTTATGGTGATATATCTCTTCTTTTTACATCAAACGGAGTCACCTAGTGCAG”, for which the binding signal is 10600 fluorescence intensity (a.u.).

As for “TTCCCCATGTTTTTTTGCCCACTAACTCACTAGCCACCACCGGAGTCACCTAGTGCAG”, the binding signal is 10700 fluorescence intensity (a.u.).

For the sequence “CTTTATTCGATATATGGGACAAATTAAGGCAGTTGCACCTCGGAGTCACCTAGTGCAG”, the binding signal is 8820 fluorescence intensity (a.u.).

For the sequence “TTTATTTTTATACTGTCACGTATCAACTGCAGTATGCATCCGGAGTCACCTAGTGCAG”, the binding signal is 8490 fluorescence intensity (a.u.).

For the sequence “TTCTTTTCCATATCGCGTTGGCCACGCGTCACCGATCGAGCGGAGTCACCTAGTGCAG”, the binding signal was 8720 fluorescence intensity (a.u.).

Turning to “TTTAAGTTTTTGTTTGTACTATTTGACCACTCGTTTTATTCGGAGTCACCTAGTGCAG”, the binding signal was 8100 fluorescence intensity (a.u.).

With “CAATTTTAGGTTATCTATTTGTGTACTTTTTTAGTTACTGCGGAGTCACCTAGTGCAG”, the binding signal is 8120 fluorescence intensity (a.u.).

As for “ATTGTTTTTTTTTCTTTTGCTGCGATTAACTGGACTTGTTCGGAGTCACCTAGTGCAG”, the binding signal was 8800 fluorescence intensity (a.u.).

For “TCACCTTCTGTGTTTCTTTTTTCTCTTTTCCATCTCATCCCGGAGTCACCTAGTGCAG”, the binding signal was 9530 fluorescence intensity (a.u.).

Consider “AACATGTACTAAAAAGTCAACGGTGTCGAACATTTTGAAACGGAGTCACCTAGTGCAG”, for which the binding signal is 8820 fluorescence intensity (a.u.).

Take “GGTGACTTCTACTTGGCCCATGCAATGTTTGGTTGGTTTCCGGAGTCACCTAGTGCAG”: the binding signal is 12300 fluorescence intensity (a.u.).

“GGCCCACAACATCCGGTCCATCTATTTTCATCGCCACTATCGGAGTCACCTAGTGCAG”: the binding signal is 11500 fluorescence intensity (a.u.).

Consider “TCATCGTCACTTTCATCGGTTTTAGCCTCACCATTGCTTGCGGAGTCACCTAGTGCAG”, for which the binding signal is 8810 fluorescence intensity (a.u.).

With “TTCGTCTTCATCTGCCCATCTCTTTCGTTCTCTCGGCTCTCGGAGTCACCTAGTGCAG”, the binding signal is 12600 fluorescence intensity (a.u.).

In the case of “TACTTCTACTGCTGCTGCGCTTCCCTGCTTGTACCAGCCGCGGAGTCACCTAGTGCAG”, the binding signal is 9730 fluorescence intensity (a.u.).

Turning to “GGTTGAATATATCATGCCTCTGCTCAACTTCTGGTCTTTTCGGAGTCACCTAGTGCAG”, the binding signal was 10300 fluorescence intensity (a.u.).

Turning to “ATTTGTACATTGACGCGTGGACTTATTATGCACTAAATAACGGAGTCACCTAGTGCAG”, the binding signal is 8660 fluorescence intensity (a.u.).

Take “ATTTTCTCCTCTCTACCTTAGGATTTTTATCTTTTTTCTACGGAGTCACCTAGTGCAG”: the binding signal is 8400 fluorescence intensity (a.u.).

With “CATCTGATTTTATTCCATGGATTTCATTTCACTCATCCCACGGAGTCACCTAGTGCAG”, the binding signal is 8110 fluorescence intensity (a.u.).

For the sequence “GGTCTCCACGCCTACGCATCCACGTCTCCAGCCAGGTCCACGGAGTCACCTAGTGCAG”, the binding signal is 10200 fluorescence intensity (a.u.).

On to “AACTGATGAATTTGTCTTTTCCGTTTAAACTTTGACCACCCGGAGTCACCTAGTGCAG”, for which the binding signal is 8920 fluorescence intensity (a.u.).

As to “CAGCCGGTGTTTTTATCCATTTTGCTGGGAGCAACCATGCCGGAGTCACCTAGTGCAG”, the binding signal is 8640 fluorescence intensity (a.u.).

With “TCTTGTGCGCCACTCCTACTTATCCGTTTCAAACACACACCGGAGTCACCTAGTGCAG”, the binding signal is 10800 fluorescence intensity (a.u.).

On to “ACCTCCATTACACATTGTAAGTCATTTTGTCTTTTTCTCTCGGAGTCACCTAGTGCAG”, for which the binding signal was 8680 fluorescence intensity (a.u.).

In the case of “CCGCGCGTGATGCGCCTCCCACCACCACCACCAGCGCGCGCGGAGTCACCTAGTGCAG”, the binding signal was 8370 fluorescence intensity (a.u.).

Turning to “GCATCTGATCGATCTCCCGTTACTATCTGCCCGCCTATTACGGAGTCACCTAGTGCAG”, the binding signal was 12300 fluorescence intensity (a.u.).

As to “CTACTACTCTTTTCTCAGAGCTAGTGAGGGGCGGGCGGGCCGGAGTCACCTAGTGCAG”, the binding signal is 17500 fluorescence intensity (a.u.).

With “GTTCGTTGGGCTAGCTTGTGTGCTAGATCTGTTTCTACTTCGGAGTCACCTAGTGCAG”, the binding signal was 8080 fluorescence intensity (a.u.).

With “ACGGAGGGAGTAGTAACTTTGCCTTGATCCTACATGAACTCGGAGTCACCTAGTGCAG”, the binding signal was 8890 fluorescence intensity (a.u.).

Consider “TACACACGTACACTGTACCCTACCCTTATGAGCAACTCCACGGAGTCACCTAGTGCAG”, for which the binding signal was 8600 fluorescence intensity (a.u.).

For “GAAATACGGCATGCATGTTGACCGGAAGGCATACACATACCGGAGTCACCTAGTGCAG”, the binding signal was 8570 fluorescence intensity (a.u.).

Take “TCTTCTTCCCCGCCGCGACCCCGCATGCCGCGCGCCACCACGGAGTCACCTAGTGCAG”: the binding signal was 8310 fluorescence intensity (a.u.).

As to “TCTCGCGCGCGACCGTTGCGCCATTTTTTTTCTTTTACCGCGGAGTCACCTAGTGCAG”, the binding signal is 9880 fluorescence intensity (a.u.).

As to “ATTTTTTTGTGAATTTGGTCAAATTTTATTCAAATTCATTCGGAGTCACCTAGTGCAG”, the binding signal was 8280 fluorescence intensity (a.u.).

For the sequence “AATTTGTAGTTATACCTAATCTATTTTCACCATATGTGCACGGAGTCACCTAGTGCAG”, the binding signal is 8340 fluorescence intensity (a.u.).

As to “CTTCCCATATACTCTTGTGACCAAACCTTTTCGACCAATACGGAGTCACCTAGTGCAG”, the binding signal is 11800 fluorescence intensity (a.u.).

“AGTCGTCGTCTCTCAGTATTGTCAATTCTTCTGCTAGCTGCGGAGTCACCTAGTGCAG”: the binding signal is 9430 fluorescence intensity (a.u.).

For “TCCTTTTGTTTTTCATTTTATACAGTTGTCCTAGTTCACGCGGAGTCACCTAGTGCAG”, the binding signal is 8500 fluorescence intensity (a.u.).

As for “TATTTTTCAGCTCACCTCTTCTTTTTTTTTCGTACACATGCGGAGTCACCTAGTGCAG”, the binding signal was 10700 fluorescence intensity (a.u.).

As for “TTTTCTGAAACAGAGACTGCTAATACCTTCCCCGGTTTATCGGAGTCACCTAGTGCAG”, the binding signal was 8840 fluorescence intensity (a.u.).

As for “CAAAAGACGACGCACTCCCACTCTACTATATATTCTGGCGCGGAGTCACCTAGTGCAG”, the binding signal was 9200 fluorescence intensity (a.u.).
